Measured values taken from PubChem BioAssay AID284 (DTP/NCI, 2004).
The list is a part of this screen's results and no random one: it covers a few groups of compounds. Not every dose and run of a compound is shown. T/C: endpoint of the treated group in % of that of the vehicle group. For survival time, this PubChem deposit counts one and a half times the control or more as active, and values a quarter to a half above the control carry no call in these data; other NCI protocols may use other cut-offs. Some entries show no survivor count and are marked so; the dose need not have been tolerated. Schedule codes are those of the source, taken here to give the interval after Q, in days (D) or hours (H), and the number of doses after X. Some schedules carry Z or #; the key to these is not given. Some doses were run more than once; their values stand side by side, smallest first.

Tested on: BDF1 mice, L1210/MTX-resistant leukemia ip, survival T/C
Assay: NCI In Vivo Anticancer Drug Screen. Data for tumor model L1210 Leukemia resistant to Methotrexate; NSC 740 (intraperitoneal) in B6D2F1 (BDF1) mice
Settings: T/C endpoint: mean survival time, schedule: Q01DX Z (ip), vehicle: saline, higher T/C = longer survival
Protocol: The antitumor activity of compounds was measured in mice bearing transplantable tumors. Survival or tumor size were measured and the results are expressed as the measurement made in the treated group (T) divided by the measurement made in the vehicle treated control group (C). The tumor model used in this assay is L1210 Leukemia resistant to Methotrexate; NSC 740 (intraperitoneal) in B6D2F1 (BDF1) mice

`CN(CCCl)CCCl` was tested, and the T/C (dose: 0.25 mg/kg/injection) was 120 [survivor count not shown], 131 [survivor count not shown], 170 % of control [survivor count not shown], the T/C (dose: 0.5 mg/kg/injection) was 99 [survivor count not shown] and 156 % of control [survivor count not shown] and the T/C (dose: 1.0 mg/kg/injection) was 89 % of control [survivor count not shown].
